# Assay results taken from the supplement of paper PMC10973195.
# ± gives the standard deviation of the averaged measurements. The list shows a part of the results. These are raw signals, not scaled to a control.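 In this assay, LPS from bacteria induces microglia-mediated neuronal death in a neuron–microglia–astrocyte co-culture, a model of inflammatory neurodegeneration. Compounds were compared against same-plate DMSO vehicle wells, with the SYK inhibitor BAY61-3606 as reference neuroprotective control.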
# Key:
# Details in all cases: 1 µM, treatment time 3 days
# [1] = tested on: rat primary cerebellar neuron-glia coculture; assay: microglia count (IB4+) per image field (cells per field); higher = more microglia
# [2] = tested on: rat primary cerebellar neuron-glia coculture; assay: necrotic cell count (DRAQ7+) per image field (cells per field); higher = more necrosis
# [3] = tested on: rat primary cerebellar neuron-glia coculture; assay: live neuron count (NeuO+) per image field (cells per field); higher = more surviving neurons
# [4] = tested on: rat primary cerebellar neuron-glia coculture; assay: median microglial FormFactor (circularity) per image (dimensionless (0-1)); higher = rounder, more ameboid microglia
SMILES,microglia count ([1]; LPS 0 ng/mL),microglia count ([1]; LPS 100 ng/mL),necrotic cell count ([2]; LPS 0 ng/mL),necrotic cell count ([2]; LPS 100 ng/mL),live neuron count ([3]; LPS 0 ng/mL),live neuron count ([3]; LPS 100 ng/mL),median microglial FormFactor ([4]; LPS 0 ng/mL),median microglial FormFactor ([4]; LPS 100 ng/mL)
CCN(CC)c1ccc(NC(=O)c2c(-c3c(Cl)cccc3Cl)noc2C)cc1,148 ± 35,443 ± 100,90.6 ± 34,996 ± 330,2640 ± 550,364 ± 350,0.574 ± 0.08,0.658 ± 0.057
COc1cc(-c2cc(-c3cccc(O)c3)cnc2N)cc(OC)c1OC,167 ± 34,408 ± 59,122 ± 76,1030 ± 370,2520 ± 520,576 ± 840,0.543 ± 0.1,0.649 ± 0.041
O=C(O)c1cc2sccc2[nH]1,208 ± 120,525 ± 350,74.5 ± 17,927 ± 370,2600 ± 480,319 ± 240,0.531 ± 0.097,0.66 ± 0.06
COc1ccc(C2CNC(=O)C2)cc1OC1CCCC1 (configuration not stated),145 ± 37,300 ± 50,101 ± 48,1310 ± 310,2750 ± 580,153 ± 150,0.537 ± 0.1,0.806 ± 0.075
COc1ccc2c(c1)[C@]1(C[C@H]1c1ccc3c(/C=C/c4ccc(CN5C[C@@H](C)O[C@@H](C)C5)cc4)n[nH]c3c1)C(=O)N2,141 ± 47,430 ± 94,83.5 ± 37,722 ± 320,2630 ± 400,295 ± 350,0.472 ± 0.097,0.69 ± 0.071
O=C(O)CCNc1cc(N2CCc3ccccc3CC2)nc(-c2ccccn2)n1,169 ± 82,456 ± 140,93.1 ± 38,854 ± 290,2520 ± 620,599 ± 610,0.517 ± 0.096,0.601 ± 0.079
CC(=O)N1C(=O)C(=O)c2ccccc21,210 ± 170,442 ± 100,92.1 ± 33,948 ± 250,2710 ± 470,392 ± 310,0.53 ± 0.093,0.664 ± 0.037
Clc1ccc(-c2nc3sccn3c2/C=N/OCc2ccc(Cl)c(Cl)c2)cc1,150 ± 43,440 ± 78,92.1 ± 46,884 ± 360,2750 ± 540,431 ± 430,0.549 ± 0.1,0.645 ± 0.075
CN1CCN(c2cc(-c3ccccc3)nc(N)n2)CC1,182 ± 60,451 ± 100,86.3 ± 35,952 ± 230,2600 ± 430,352 ± 310,0.557 ± 0.073,0.65 ± 0.062
COc1cc2nc(N3CCN(C(=O)C4COc5ccccc5O4)CC3)nc(N)c2cc1OC (configuration not stated),172 ± 69,666 ± 90,161 ± 28,131 ± 45,2460 ± 490,2370 ± 570,0.661 ± 0.091,0.478 ± 0.051
CN1CCN(c2ccc(-c3cccc(CN4CCOCC4)c3)cc2NC(=O)c2c[nH]c(=O)cc2C(F)(F)F)CC1,155 ± 35,429 ± 120,88.6 ± 31,791 ± 420,2570 ± 420,824 ± 1000,0.549 ± 0.063,0.649 ± 0.097
Cc1nc2c([nH]1)-c1ccccc1N(C(=O)c1ccc(NC(=O)c3ccccc3-c3ccccc3)cc1)CC2,167 ± 41,450 ± 99,79 ± 38,949 ± 340,2620 ± 440,335 ± 280,0.573 ± 0.072,0.632 ± 0.078
O=C(NCCCNc1nc(Nc2cccc(NC(=O)N3CCCC3)c2)ncc1I)c1cccs1,154 ± 55,441 ± 70,121 ± 49,324 ± 170,2570 ± 470,1790 ± 640,0.548 ± 0.087,0.632 ± 0.086
CNC(=O)c1ccccc1Nc1cc(Nc2ccc(N3CCOCC3)cc2OC)ncc1C(F)(F)F,223 ± 58,401 ± 51,65.5 ± 30,809 ± 400,1540 ± 350,403 ± 270,0.465 ± 0.079,0.666 ± 0.091
Clc1ccc(CNc2nc3ccccc3[nH]2)cc1Cl,192 ± 41,424 ± 82,65.7 ± 27,804 ± 340,1550 ± 330,451 ± 360,0.472 ± 0.056,0.663 ± 0.082
CCOC(=O)C1=CCCCC1S(=O)(=O)Nc1ccc(F)cc1Cl (configuration not stated),307 ± 510,759 ± 150,81.9 ± 40,44.2 ± 21,2450 ± 740,2330 ± 420,0.53 ± 0.054,0.362 ± 0.061
O=C(NCCCN1CCC2(CC1)OCc1ccccc12)[C@H]1CCCN1Cc1ccccc1,195 ± 42,437 ± 100,77.3 ± 32,813 ± 240,2410 ± 560,291 ± 270,0.548 ± 0.095,0.652 ± 0.073
c1ccc(-c2ccc(C(c3ccccc3)n3ccnc3)cc2)cc1 (configuration not stated),159 ± 150,548 ± 85,285 ± 110,195 ± 52,2380 ± 580,2670 ± 490,0.729 ± 0.12,0.509 ± 0.042
Cc1noc(-c2ccc(CSCCC(=O)O)cc2)c1NC(=O)OC(C)c1ccccc1Cl (configuration not stated),162 ± 40,412 ± 80,133 ± 54,1160 ± 310,2530 ± 580,431 ± 350,0.535 ± 0.093,0.662 ± 0.094
CCCN1CCN(c2ccc(C(=O)NC3(C(=O)NCC#N)CCCCC3)cc2)CC1,165 ± 35,432 ± 90,87.7 ± 39,1060 ± 300,2620 ± 520,218 ± 140,0.567 ± 0.1,0.673 ± 0.066
O=C(N1CCCCC1c1ccccc1)n1cc(-c2ccc(-c3cccc(CO)c3)cc2)nn1 (configuration not stated),172 ± 56,521 ± 290,80.6 ± 15,818 ± 350,2520 ± 370,292 ± 340,0.545 ± 0.074,0.679 ± 0.05
COCC(=O)NC/C=C/c1ccc2ncnc(Nc3ccc(Oc4ccc(C)nc4)c(C)c3)c2c1,178 ± 44,439 ± 95,84.7 ± 44,1060 ± 510,2600 ± 600,380 ± 540,0.51 ± 0.079,0.638 ± 0.094
CN(C)CCNC(=O)c1cccn2c(=O)c3cc4ccccc4cc3nc12,169 ± 30,429 ± 89,86.9 ± 49,1060 ± 350,2640 ± 660,234 ± 130,0.512 ± 0.045,0.701 ± 0.04
O=c1[nH]c2cc(Cl)ccc2c(O)c1-c1cccc(Oc2ccccc2)c1,157 ± 36,442 ± 94,92.3 ± 31,949 ± 300,2710 ± 400,423 ± 390,0.523 ± 0.08,0.667 ± 0.048

# Reformatted with tabs: 6 of the compounds above
SMILES	microglia count ([1]; LPS 0 ng/mL)	microglia count ([1]; LPS 100 ng/mL)	necrotic cell count ([2]; LPS 0 ng/mL)	necrotic cell count ([2]; LPS 100 ng/mL)	live neuron count ([3]; LPS 0 ng/mL)	live neuron count ([3]; LPS 100 ng/mL)	median microglial FormFactor ([4]; LPS 0 ng/mL)	median microglial FormFactor ([4]; LPS 100 ng/mL)
O=C(NCCCNc1nc(Nc2cccc(NC(=O)N3CCCC3)c2)ncc1I)c1cccs1	154 ± 55	441 ± 70	121 ± 49	324 ± 170	2570 ± 470	1790 ± 640	0.548 ± 0.087	0.632 ± 0.086
CNC(=O)c1ccccc1Nc1cc(Nc2ccc(N3CCOCC3)cc2OC)ncc1C(F)(F)F	223 ± 58	401 ± 51	65.5 ± 30	809 ± 400	1540 ± 350	403 ± 270	0.465 ± 0.079	0.666 ± 0.091
Clc1ccc(CNc2nc3ccccc3[nH]2)cc1Cl	192 ± 41	424 ± 82	65.7 ± 27	804 ± 340	1550 ± 330	451 ± 360	0.472 ± 0.056	0.663 ± 0.082
CCOC(=O)C1=CCCCC1S(=O)(=O)Nc1ccc(F)cc1Cl (configuration not stated)	307 ± 510	759 ± 150	81.9 ± 40	44.2 ± 21	2450 ± 740	2330 ± 420	0.53 ± 0.054	0.362 ± 0.061
O=C(NCCCN1CCC2(CC1)OCc1ccccc12)[C@H]1CCCN1Cc1ccccc1	195 ± 42	437 ± 100	77.3 ± 32	813 ± 240	2410 ± 560	291 ± 270	0.548 ± 0.095	0.652 ± 0.073
c1ccc(-c2ccc(C(c3ccccc3)n3ccnc3)cc2)cc1 (configuration not stated)	159 ± 150	548 ± 85	285 ± 110	195 ± 52	2380 ± 580	2670 ± 490	0.729 ± 0.12	0.509 ± 0.042
